Laboratory results reported in publication PMC9609824 (Molecules, 2022).

Assays:
[1] = Pharmacokinetic interaction study of glipizide with APE/AND in normal rats
[2] = freeze–thaw, room temperature, −80 °C (4 and 24 h), autosampler (24 h); %error ≤ 15 %, % CV ≤ 15%
[3] = Pharmacokinetic interaction study of glipizide with APE/AND in diabetic rats (streptozotocin/nicotinamide induced); settings: diabetic versus normal rats
[4] = male, Wistar, rat, plasma, po, 5 mg/kg

- AUC(0-t) [1, 4]: 25100 ng·h/mL
- Cmax [1, 4]: 2040 ± 359 ng/mL
- MRT inf [1, 4]: 19.3 ± 6.1 h
- Tmax [1, 4]: 5.6 ± 0.7 h
- AUMC0–∞ of glipizide in plasma ([1]; normal rats, GLZ 5 mg/kg BW oral on day 7, alone or after APE 300 mg/kg BW or AND 15 mg/kg BW for 7 days, mean ± SEM, NCA): 637,882.6 ± 162,429 ng/mL·h^2
- Stability of glipizide in plasma under storage conditions [2]: No significant degradation was observed
- Plasma concentration of glipizide in diabetic rats relative to normal rats [3]: 10 times
Structure (SMILES): Cc1cnc(C(=O)NCCc2ccc(S(=O)(=O)NC(=O)NC3CCCCC3)cc2)cn1 [GLZ, glipizide]
